Measurements published in publication PMC6925144, “A prospective compound screening contest identified broader inhibitors for Sirtuin 1” (Scientific Reports, 2019).
Over roughly 3,200 compounds, “TSA(with NAD+) / Primary screening (TSA) / delta Tm (K)” has its median near -0.04; the highest 2% begin near 0.37. The list shows a part of the results.

The chains behind the UniProt entries cited, without tags or fusion partners. Residues count along the entry.
UniProt Q96EB6, 2-747 limits assumed: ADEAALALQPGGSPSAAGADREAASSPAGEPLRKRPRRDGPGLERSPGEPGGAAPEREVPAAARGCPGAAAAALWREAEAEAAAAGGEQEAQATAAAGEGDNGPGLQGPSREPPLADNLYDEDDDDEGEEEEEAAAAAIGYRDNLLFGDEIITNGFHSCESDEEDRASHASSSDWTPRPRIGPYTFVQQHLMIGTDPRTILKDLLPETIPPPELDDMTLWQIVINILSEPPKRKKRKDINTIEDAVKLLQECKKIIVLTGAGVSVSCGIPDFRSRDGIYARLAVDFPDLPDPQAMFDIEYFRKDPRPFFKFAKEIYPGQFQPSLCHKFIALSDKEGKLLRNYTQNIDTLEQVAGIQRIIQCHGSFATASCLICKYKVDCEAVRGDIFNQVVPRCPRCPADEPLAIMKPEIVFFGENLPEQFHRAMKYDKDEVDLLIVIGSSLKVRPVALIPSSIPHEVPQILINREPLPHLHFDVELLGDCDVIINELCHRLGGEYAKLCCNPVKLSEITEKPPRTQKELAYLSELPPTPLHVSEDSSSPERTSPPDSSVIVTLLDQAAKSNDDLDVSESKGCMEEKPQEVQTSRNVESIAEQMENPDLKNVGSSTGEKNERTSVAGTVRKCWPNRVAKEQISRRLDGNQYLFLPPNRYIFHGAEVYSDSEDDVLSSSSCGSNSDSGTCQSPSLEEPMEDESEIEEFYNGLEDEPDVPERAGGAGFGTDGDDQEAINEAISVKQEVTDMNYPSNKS

Biological target: NAD-dependent deacetylase Sirtuin 1 (human, UniProt Q96EB6)
Test: primary screen, delta tm
Design: single well (n = 1, as 'the same TSA')
Conditions: 10 µM

Point of comparison: `COc1ccc(NC(=O)c2ccc(NC(=O)c3cnoc3C)cc2)cc1OCc1cccnc1`, “TSA(with NAD+) / Primary screening (TSA) / delta Tm (K)” value 0.05 K. Against it:
- CCCC(C)(O)C(=O)O (stereo not drawn) — lower, -0.11 K
- CC1CC(C)CN(C(=O)COc2ccc3c4c(c(=O)oc3c2)CCC4)C1 (stereo not drawn) — lower, -0.02 K
- COCC(C)n1c(SCc2ccc(C(N)=O)cc2)nc2ccccc2c1=O (stereo not drawn) — lower, -0.18 K
- COc1cc(CN(C)C(=O)c2ccc(-n3cnnn3)cc2)ccc1OCc1ccccc1 — lower, -0.22 K
- NC(=O)c1ccc(COC(=O)c2cc(C3CC3)nc3ccccc23)cc1 — lower, -0.03 K
- CCOC(=O)C1=C(COC(=O)c2sc3nc(C)cc(C)c3c2-n2cccc2)NC(=O)NC1 — lower, -0.01 K
- Cc1ccc(C2C(C(=O)c3cc4ccccc4o3)=C(O)C(=O)N2CCCN2CCOCC2)cc1 (stereo not drawn) — the same, 0.05 K
- O=C(Cn1c(=O)cnc2ccccc21)Nc1ccc(N2CCN(Cc3ccccc3)CC2)cc1 — lower, 0.01 K
- CC1(C)CCC(NC(=O)Cn2c(=O)cnc3ccccc32)c2ccccc21 (stereo not drawn) — lower, -0.16 K
- COCCCCC(=O)O — lower, -0.11 K
- O=C1NC(=O)N(c2ccc3c(c2)OCO3)C1=O — lower, -0.02 K
- Cn1c(CCNC(=O)CCc2cccnc2)nc2cc(Cl)ccc21 — lower, -0.08 K
- Cc1cc(C=C(C#N)C#N)c(C)n1C1CC1 — lower, -0.01 K
- COc1ccc(C2NC(=O)c3ccccc3N2)cc1C (stereo not drawn) — lower, -0.04 K
- O=C(/C=C/c1ccc2c(c1)OCCCO2)N1CCN(S(=O)(=O)/C=C/c2ccccc2)CC1 — lower, -0.11 K
- O=C(Nc1cccc(S(=O)(=O)NCc2ccco2)c1)C1=NN(c2ccccc2)C(=O)CC1 — the same, 0.05 K
- CN1CCC(NC(=O)CCc2cnccn2)C1c1ccccc1 (stereo not drawn) — lower, -0.02 K
- CNC(=O)C1CCCN(c2ncnc3ccsc23)C1 (stereo not drawn) — lower, -0.11 K
- NC(=O)c1ccc(=O)n(Cc2csc(-c3ccccc3F)n2)n1 — lower, -0.05 K
- Cc1ccc2[nH]c3c(c2c1)CC(=O)CC3 — lower, -0.12 K
- COc1cc(C(=O)NC2CCCNC2=O)cc(OC)c1C (stereo not drawn) — lower, -0.01 K
- CN1CCN(C(=O)CCCc2ccccc2)c2nc3ccccc3nc21 — lower, -0.22 K
- Cc1ccc(S(=O)(=O)N2CCC(C(=O)N3CCCCCCC3)CC2)cc1C — lower, -0.01 K
- Cc1nc(-c2c[nH]c(C(=O)NCc3ccc(-n4cncn4)cc3)c2)cs1 — lower, -0.24 K
- NC(=O)CCn1cnc2cc(F)c(F)cc21 — lower, -0.22 K
- COc1cc(CNc2ncccc2C#N)ccn1 — lower, -0.05 K
- CCc1ccccc1-n1c(SCCS(C)(=O)=O)nc2ccccc2c1=O — lower, -0.09 K
- CS(=O)(=O)CCS(N)(=O)=O — lower, -0.12 K
- O=C1/C(=C/c2ccccc2)Oc2cc(O)ccc21 — lower, -0.06 K
- NC(=O)c1ccc(NC(=O)CSc2nnc(N)s2)cc1 — lower, -0.13 K
- Cc1sc2ncnc(N3CCC(C(=O)Nc4sc5c(c4C(N)=O)CCCC5)CC3)c2c1C — higher, 0.07 K
- CCn1nnc2cc(C(=O)N3CCN(C(c4ccc(F)cc4)c4ccc(F)cc4)CC3)ccc21 — lower, -0.22 K
- O=C(O)CCS(=O)(=O)[O-] — higher, 0.06 K
- CN(C)c1ncnc2c1cc(C(=O)O)n2C — lower, -0.18 K
- O=C1NC(Cc2ccccc2)C(=O)N1CN1CCN(C/C=C/c2ccccc2)CC1 (stereo not drawn) — higher, 0.06 K
